At least one structure is not confirmed: it was looked up by name or label, or the drawing left a doubt.
Test system: isolated rat epididymal adipocytes
Test: Glucose transport assay (2-DOG uptake)
Format: cell-based
Conditions: 4 h

O=c1cc(N2CCOCC2)oc2c(-c3ccccc3)cccc12 [LY294002, reference compound]
effect on glucose uptake induced by DHH105 (LY294002 50 μM added 10 min before DHH105 500 μM): reduced glucose uptake induced by DHH105 to the level of basal glucose uptake

Cc1c(C)c2c(c(C)c1O)CCC(C)(COc1ccc(CC3SC(=O)NC3=O)cc1)O2 (stereo not drawn) [troglitazone, reference compound]
glucose transport at higher doses (rat adipocytes, higher doses): remained unchanged

COC[C@H]1OC(=O)c2coc3c2[C@@]1(C)C1=C(C3=O)[C@@H]2CCC(=O)[C@@]2(C)C[C@H]1OC(C)=O [wortmannin, reference compound]
effect on glucose uptake induced by DHH105 (wortmannin 100 nM added 10 min before DHH105 500 μM): reduced glucose uptake induced by DHH105 to the level of basal glucose uptake
